From doi:10.1101/2023.06.19.545549
No constants are given. Whether binding was seen depends on the method and setting. Binding seen in cells or lysates may run through a third protein. Here binding means that the protein was enriched with, or labelled near, the bait; the list need not be complete.

By UniProt entry, the sequences of proteins in these tests, tags left out.
UniProt P95334: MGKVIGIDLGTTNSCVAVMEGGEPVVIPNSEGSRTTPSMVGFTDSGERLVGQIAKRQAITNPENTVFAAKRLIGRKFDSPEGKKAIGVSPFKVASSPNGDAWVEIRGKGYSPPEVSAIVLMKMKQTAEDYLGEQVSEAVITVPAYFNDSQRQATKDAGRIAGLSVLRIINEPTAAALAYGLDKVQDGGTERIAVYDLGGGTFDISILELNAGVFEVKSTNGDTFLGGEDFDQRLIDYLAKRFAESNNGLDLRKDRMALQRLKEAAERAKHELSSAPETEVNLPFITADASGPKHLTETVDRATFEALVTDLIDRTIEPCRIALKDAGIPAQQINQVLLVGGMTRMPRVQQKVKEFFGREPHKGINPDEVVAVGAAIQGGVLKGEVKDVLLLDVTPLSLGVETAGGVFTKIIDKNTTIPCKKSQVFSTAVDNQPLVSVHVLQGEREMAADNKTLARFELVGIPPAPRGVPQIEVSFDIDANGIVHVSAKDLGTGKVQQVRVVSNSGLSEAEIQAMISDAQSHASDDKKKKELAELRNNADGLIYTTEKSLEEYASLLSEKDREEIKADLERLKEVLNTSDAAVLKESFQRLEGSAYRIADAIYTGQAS

Experiments:
[1] = biological target: MxDnaK2 (MXAN_6671) (Myxococcus xanthus DK1622 (endogenous in DK1622)) (UniProt P95334); experiment: affinity purification with mass spectrometry
[2] = biological target: MxDnaK1 (MXAN_3192) (Myxococcus xanthus DK1622 (endogenous in DK1622)); experiment: affinity purification with mass spectrometry

binding [1]: binds
binding [2]: binds
B1: MXAN_6672 (protein, UniProt P95333 1-255)
chain: MTVIEVEASGPSTPVEAEASASPADTTSPPSDAEATPSEDVAALRQEVESLKAQLEFSQAKGRETMERLREAHERAKEAQERTVRHAADLENYRKRAQKEKEEVQRFGSEKLLKDLLPVMDNLDRAIDAAAKSPDLDSFEKGVAMTRKSFEDALGRHGVKGFSAKGQVFDPRVHEAIQQVETADVPAGHVAYEVVRGFYLNERLVRPAMVVVARAPAEPVAAAEPPAVAEPATATTDTEAPAAPAQSENSSGGSQ
